According to the supplement of paper PMC7661543:
The effect of the compound repeats well; differences between the knockouts mostly do not.

Test system: SKBR3
Test: relative cell number vs DMSO control (72 h) (% of DMSO); higher = less growth inhibition (more cells)
Description: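 QMAP-Seq: a pool of 5 breast cancer cell lines (ZR-75-1, SKBR3, HCC-38, MDA-MB-231, BT-20), each carrying 12 doxycycline-inducible Cas9 sgRNA perturbations (11 knockouts plus non-targeting sgNT), was treated with compounds for 72 h at four 10-fold doses (10 nM-10 uM or 1 nM-1 uM range). Barcodes were amplified and sequenced, and cell number was interpolated from 293T spike-in standard curves. The result is expressed as % of the median of DMSO wells. Two biological replicates.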

CC(C)(C)c1nc(-c2cccc(NS(=O)(=O)c3c(F)cccc3F)c2F)c(-c2ccnc(N)n2)s1 [Dabrafenib]
Details | relative cell number
sgRNA knockout: sgATF3, 10 nM | 133
sgRNA knockout: sgATF3, 100 nM | 103
sgRNA knockout: sgATF3, 1000 nM | 94.3
sgRNA knockout: sgATF3, 10000 nM | 114
sgRNA knockout: sgATF4, 10 nM | 131
sgRNA knockout: sgATF4, 100 nM | 102
sgRNA knockout: sgATF4, 1000 nM | 85.1
sgRNA knockout: sgATF4, 10000 nM | 114
sgRNA knockout: sgATF6, 10 nM | 125
sgRNA knockout: sgATF6, 100 nM | 120
sgRNA knockout: sgATF6, 1000 nM | 84.9
sgRNA knockout: sgATF6, 10000 nM | 97.2
sgRNA knockout: sgATG7, 10 nM | 150
sgRNA knockout: sgATG7, 100 nM | 125
sgRNA knockout: sgATG7, 1000 nM | 80.5
sgRNA knockout: sgATG7, 10000 nM | 132
sgRNA knockout: sgERN1, 10 nM | 181
sgRNA knockout: sgERN1, 100 nM | 114
sgRNA knockout: sgERN1, 1000 nM | 94.1
sgRNA knockout: sgERN1, 10000 nM | 95.8
sgRNA knockout: sgHSF1, 10 nM | 133
sgRNA knockout: sgHSF1, 100 nM | 104
sgRNA knockout: sgHSF1, 1000 nM | 89.3
sgRNA knockout: sgHSF1, 10000 nM | 91.1
sgRNA knockout: sgHSF2, 10 nM | 137
sgRNA knockout: sgHSF2, 100 nM | 107
sgRNA knockout: sgHSF2, 1000 nM | 91
sgRNA knockout: sgHSF2, 10000 nM | 102
sgRNA knockout: sgKEAP1, 10 nM | 114
sgRNA knockout: sgKEAP1, 100 nM | 110
sgRNA knockout: sgKEAP1, 1000 nM | 69.5
sgRNA knockout: sgKEAP1, 10000 nM | 105
sgRNA knockout: sgNFE2L2, 10 nM | 152
sgRNA knockout: sgNFE2L2, 100 nM | 114
sgRNA knockout: sgNFE2L2, 1000 nM | 71.4
sgRNA knockout: sgNFE2L2, 10000 nM | 122
sgRNA knockout: sgSLC35F2, 10 nM | 123
sgRNA knockout: sgSLC35F2, 100 nM | 114
sgRNA knockout: sgSLC35F2, 1000 nM | 87.8
sgRNA knockout: sgSLC35F2, 10000 nM | 85.9
sgRNA knockout: sgXBP1, 10 nM | 156
sgRNA knockout: sgXBP1, 100 nM | 111
sgRNA knockout: sgXBP1, 1000 nM | 84
sgRNA knockout: sgXBP1, 10000 nM | 108

COC(=O)/C=C/C(=O)OC [DimethylFumarate]
Details | relative cell number
sgRNA knockout: sgATF3, 10 nM | 104
sgRNA knockout: sgATF3, 100 nM | 97.3
sgRNA knockout: sgATF3, 1000 nM | 91.4
sgRNA knockout: sgATF3, 10000 nM | 105
sgRNA knockout: sgATF4, 10 nM | 85.5
sgRNA knockout: sgATF4, 100 nM | 82.8
sgRNA knockout: sgATF4, 1000 nM | 74.9
sgRNA knockout: sgATF4, 10000 nM | 91.6
sgRNA knockout: sgATF6, 10 nM | 81.7
sgRNA knockout: sgATF6, 100 nM | 85.7
sgRNA knockout: sgATF6, 1000 nM | 92.8
sgRNA knockout: sgATF6, 10000 nM | 86.6
sgRNA knockout: sgATG7, 10 nM | 112
sgRNA knockout: sgATG7, 100 nM | 84.7
sgRNA knockout: sgATG7, 1000 nM | 87.1
sgRNA knockout: sgATG7, 10000 nM | 93.4
sgRNA knockout: sgERN1, 10 nM | 95.7
sgRNA knockout: sgERN1, 100 nM | 92.5
sgRNA knockout: sgERN1, 1000 nM | 109
sgRNA knockout: sgERN1, 10000 nM | 89.9
sgRNA knockout: sgHSF1, 10 nM | 106
sgRNA knockout: sgHSF1, 100 nM | 83.5
sgRNA knockout: sgHSF1, 1000 nM | 93.6
sgRNA knockout: sgHSF1, 10000 nM | 106
sgRNA knockout: sgHSF2, 10 nM | 81.3
sgRNA knockout: sgHSF2, 100 nM | 78.2
sgRNA knockout: sgHSF2, 1000 nM | 86.4
sgRNA knockout: sgHSF2, 10000 nM | 102
sgRNA knockout: sgKEAP1, 10 nM | 80.1
sgRNA knockout: sgKEAP1, 100 nM | 67.4
sgRNA knockout: sgKEAP1, 1000 nM | 85.4
sgRNA knockout: sgKEAP1, 10000 nM | 107
sgRNA knockout: sgNFE2L2, 10 nM | 73.2
sgRNA knockout: sgNFE2L2, 100 nM | 101
sgRNA knockout: sgNFE2L2, 1000 nM | 71.9
sgRNA knockout: sgNFE2L2, 10000 nM | 100
sgRNA knockout: sgSLC35F2, 10 nM | 92.9
sgRNA knockout: sgSLC35F2, 100 nM | 90.9
sgRNA knockout: sgSLC35F2, 1000 nM | 72.6
sgRNA knockout: sgSLC35F2, 10000 nM | 87
sgRNA knockout: sgXBP1, 10 nM | 97.3
sgRNA knockout: sgXBP1, 100 nM | 81.5
sgRNA knockout: sgXBP1, 1000 nM | 92.6
sgRNA knockout: sgXBP1, 10000 nM | 96.6

CN1CCN(c2ccc(C(=O)Nc3n[nH]c4ccc(Cc5cc(F)cc(F)c5)cc34)c(NC3CCOCC3)c2)CC1 [Entrectinib]
Details | relative cell number
sgRNA knockout: sgATF3, 1 nM | 105
sgRNA knockout: sgATF3, 10 nM | 96.8
sgRNA knockout: sgATF3, 100 nM | 89.6
sgRNA knockout: sgATF3, 1000 nM | 104
sgRNA knockout: sgATF4, 1 nM | 77.5
sgRNA knockout: sgATF4, 10 nM | 82.6
sgRNA knockout: sgATF4, 100 nM | 71
sgRNA knockout: sgATF4, 1000 nM | 88.1
sgRNA knockout: sgATF6, 1 nM | 85.9
sgRNA knockout: sgATF6, 10 nM | 92.7
sgRNA knockout: sgATF6, 100 nM | 74
sgRNA knockout: sgATF6, 1000 nM | 91.2
sgRNA knockout: sgATG7, 1 nM | 96.9
sgRNA knockout: sgATG7, 10 nM | 83.7
sgRNA knockout: sgATG7, 100 nM | 79.2
sgRNA knockout: sgATG7, 1000 nM | 98.6
sgRNA knockout: sgERN1, 1 nM | 102
sgRNA knockout: sgERN1, 10 nM | 93.2
sgRNA knockout: sgERN1, 100 nM | 94.49
sgRNA knockout: sgERN1, 1000 nM | 106
sgRNA knockout: sgHSF1, 1 nM | 89
sgRNA knockout: sgHSF1, 10 nM | 67.1
sgRNA knockout: sgHSF1, 100 nM | 91.7
sgRNA knockout: sgHSF1, 1000 nM | 107
sgRNA knockout: sgHSF2, 1 nM | 90.5
sgRNA knockout: sgHSF2, 10 nM | 94.8
sgRNA knockout: sgHSF2, 100 nM | 78.5
sgRNA knockout: sgHSF2, 1000 nM | 91.47
sgRNA knockout: sgKEAP1, 1 nM | 93.7
sgRNA knockout: sgKEAP1, 10 nM | 87.6
sgRNA knockout: sgKEAP1, 100 nM | 86.7
sgRNA knockout: sgKEAP1, 1000 nM | 85.2
sgRNA knockout: sgNFE2L2, 1 nM | 77
sgRNA knockout: sgNFE2L2, 10 nM | 100
sgRNA knockout: sgNFE2L2, 100 nM | 94.2
sgRNA knockout: sgNFE2L2, 1000 nM | 79
sgRNA knockout: sgSLC35F2, 1 nM | 102
sgRNA knockout: sgSLC35F2, 10 nM | 80.3
sgRNA knockout: sgSLC35F2, 100 nM | 94.5
sgRNA knockout: sgSLC35F2, 1000 nM | 104
sgRNA knockout: sgXBP1, 1 nM | 105
sgRNA knockout: sgXBP1, 10 nM | 121
sgRNA knockout: sgXBP1, 100 nM | 78
sgRNA knockout: sgXBP1, 1000 nM | 97.1
